Measured values reported in PMC6411159, “Development of a high-throughput fluorescent no-wash sodium influx assay” (PLoS ONE, 2019).

How the values were obtained:
[1] = quenching of background fluorescence of the sodium indicator ANG-2 in NaV1.7-HEK cells (FLIPR); conditions: quencher 1 mM, NaV1.7-HEK cells loaded with ANG-2, 60–100 s after addition; no quencher 2557 ± 34, wash 1539 ± 44
[2] = quenching of background fluorescence of the calcium indicator fluo-4 in SH-SY5Y cells (FLIPR); set-up: species or system human; conditions: quencher 1 mM, SH-SY5Y cells loaded with fluo-4; no quencher 4243 ± 100

| Compound | background fluorescence after addition of food dye [1] [RFU] | background fluorescence after addition of quencher [2] [RFU] |
| --- | --- | --- |
| Cc1c(C(=O)O)c(O)cc2c1C(=O)c1c(O)c(C3O[C@H](CO)[C@@H](O)[C@H](O)[C@H]3O)c(O)c(O)c1C2=O (stereo in doubt) [Carmine] | 1526 ± 71 | – |
| COc1cc(S(=O)(=O)[O-])c(C)cc1N=Nc1c(O)ccc2cc(S(=O)(=O)[O-])ccc12.[Na+].[Na+] [Allura Red, Allura Red AC] | 1505 ± 39 | 980 ± 126 |
| O=S(=O)([O-])c1ccc2c(N=Nc3ccc(S(=O)(=O)[O-])c4ccccc34)c(O)c(S(=O)(=O)[O-])cc2c1.[Na+].[Na+].[Na+] [Amaranth] | 1451 ± 17 | 1166 ± 40 |
| CC(=O)Nc1ccc(S(=O)(=O)[O-])c2cc(S(=O)(=O)[O-])c(N=Nc3ccc(N=Nc4ccc(S(=O)(=O)[O-])cc4)c4ccc(S(=O)(=O)[O-])cc34)c(O)c12.[Na+].[Na+].[Na+].[Na+] [Brilliant Black BN] | 1459 ± 34 | 885 ± 12 |
| O=S(=O)([O-])c1cc(S(=O)(=O)[O-])c2c(N=Nc3ccc(S(=O)(=O)[O-])c4ccccc34)c(O)ccc2c1.[Na+].[Na+].[Na+] [Ponceau 4R] | 1575 ± 26 | 848 ± 11 |
